## Library screening results

The chains behind the UniProt entries cited, without tags or fusion partners.
UniProt E9BF75, entry or part of it: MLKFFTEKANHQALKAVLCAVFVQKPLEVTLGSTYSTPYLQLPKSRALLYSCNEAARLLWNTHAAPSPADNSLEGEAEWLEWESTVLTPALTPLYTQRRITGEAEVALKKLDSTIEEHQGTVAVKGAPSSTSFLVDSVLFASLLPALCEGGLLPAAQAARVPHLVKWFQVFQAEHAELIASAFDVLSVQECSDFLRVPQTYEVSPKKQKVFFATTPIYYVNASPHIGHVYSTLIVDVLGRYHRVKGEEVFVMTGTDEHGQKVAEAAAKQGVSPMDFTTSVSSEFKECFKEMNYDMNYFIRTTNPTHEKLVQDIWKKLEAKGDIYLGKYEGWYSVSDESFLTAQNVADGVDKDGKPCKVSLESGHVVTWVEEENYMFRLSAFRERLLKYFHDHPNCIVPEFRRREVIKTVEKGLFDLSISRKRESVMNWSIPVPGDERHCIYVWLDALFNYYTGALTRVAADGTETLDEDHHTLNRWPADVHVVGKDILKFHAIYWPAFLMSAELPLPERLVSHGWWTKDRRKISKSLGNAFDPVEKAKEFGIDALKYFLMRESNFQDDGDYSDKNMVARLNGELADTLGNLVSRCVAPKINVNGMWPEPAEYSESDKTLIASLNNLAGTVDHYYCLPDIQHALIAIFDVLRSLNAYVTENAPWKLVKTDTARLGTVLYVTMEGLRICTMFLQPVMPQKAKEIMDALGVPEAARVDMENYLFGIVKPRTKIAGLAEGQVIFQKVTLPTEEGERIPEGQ

Results are percentages, as filed. How 0% and 100% were set is not recorded. Most values in the screen are low, and negative values occur. Compounds were drawn at random from those tested, without regard to their results. A dash means the value is not listed here; it may have been measured.

A: 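Primary screen of methionyl-tRNA synthetase; the read-out is not stated. Target: Methionyl-tRNA synthetase (putative), Leishmania donovani (UniProt E9BF75). The test concentration is not given. Values are per cent inhibition. About 68,000 compounds were tested under these conditions; 0.035% (about 24) showed 50% or more at least once.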
B: 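Assay on Mycobacterium tuberculosis, filed only as a heat shock assay from Cornell; the read-out is not stated. The concentration is filed as 10 mM, unlikely as a test dose, so the dose is not known. The record gives no direction; compounds that gave an IC50 in retests scored well above the rest, so higher reads as stronger inhibition. Size under these conditions: about 69,000 compounds, about 930 of them at 50% or above in at least one test.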

compound | A | B
O=C(NCC1(c2ccc(F)cc2)CCCC1)N1CCOC(CO)C1 (stereo not shown) | 7.494 | 0.1029
CC(C)(C)C(=O)NCCCc1nc2ccccc2[nH]1 | 4.396 | -15.46
CC(=O)Nc1cccc(C(C)NCC2CCS(=O)(=O)CC2)c1 (stereo not shown) | 5.344 | 5.94
COc1ccc2c(c1)NC(=O)C2OC(=O)CC(C)(C)C (stereo not shown) | 20.16 | -19.5
O=C(O)C(F)(F)F.O=C(O)C(F)(F)F.O=C(O)C(F)(F)F.[H][C@@]12CCCO[C@]1([H])[C@H](N1CCN(C)CC1)CN2Cc1cc(C)c(C)o1 | - | -5.675
Cc1nccn1CCCC(=O)N1CCN(c2cccnc2)CC1 | 4.467 | -14.84
Cc1cccc(C(=O)N2C[C@@H](OCc3cccnc3)[C@H]3OCCC[C@@H]32)n1 | 9.871 | -
O=C(O)C(F)(F)F.[H][C@@]12C[C@H](c3nc(C)no3)CN(Cc3cccs3)[C@]1([H])CCO2 | - | 16.51
CC(NCc1ccc(F)cc1)c1ccc(S(C)(=O)=O)cc1 (stereo not shown) | 3.064 | -6.865
O=C(c1ccco1)N1C[C@@H]2OCCN(CCN3CCCC3)[C@@H]2C1 | 15.15 | -
[H][C@@]12CS(=O)(=O)C[C@]1([H])N(Cc1nc3ccccc3[nH]1)CCN2CCC | - | -7.287
Cc1ncc(CN2CCCC(c3cc(C(N)=O)[nH]n3)C2)s1 (stereo not shown) | 7.778 | -15.08
CC(C)Oc1ncnc2c1CCN(Cc1ccco1)CC2 | 11.4 | -
O=C(CCCNC(=O)Nc1ccc(F)cc1F)Nc1cn[nH]c1 | 9.943 | 17.79
CC(C)Cc1cc(CC2(NCc3ccccc3Cl)COC2)no1 | 5.085 | -24.27
CNC(=O)[C@@]12CCO[C@@H]1CCN(S(=O)(=O)c1cc(C)cc(C)c1)C2 | -2.198 | -
Cc1cc(NC(=O)CNC(C)(C)c2ccc3c(c2)OCCO3)no1 | 13.98 | -15.09
CC(=O)N1Cc2ccccc2C[C@H]1C(=O)N(C)CCc1ccccn1 | 7.904 | -13
Cn1cc(C(O)CNC(=O)c2ccc(F)cc2Cl)cn1 (stereo not shown) | 19.78 | 2.913
COc1cc(CNC(C)c2ccc(F)c(F)c2)cc2c1OCCO2 (stereo not shown) | 18.99 | -
CC(C)C(=O)N1CCc2onc(C(=O)NCCN(C)C)c2C1 | 6.574 | -
N#Cc1cccc(N2CCCC(CO)(Cc3ccccc3F)C2)n1 (stereo not shown) | 3.75 | -25.39
COc1cccc(CN2CCC(c3cc(O)nc(C)n3)C2)c1.O=C(O)CC(O)(CC(=O)O)C(=O)O (stereo not shown) | - | -11.36
Cn1ccnc1CNC(=O)N1CCCC(Cc2nccn2C)C1 (stereo not shown) | 11.43 | -7.181
Cc1ccc(-n2cnnn2)cc1NCC(=O)Nc1cc(F)ccc1F | 8.982 | -6.749
c1nnc(Nc2cncc(C3CCCN3CC3CC3)n2)s1 (stereo not shown) | 9.974 | 103.4
CN(Cc1cccnc1)C1COC2(CCN(Cc3nccs3)CC2)C1.O=C(O)C(F)(F)F.O=C(O)C(F)(F)F.O=C(O)C(F)(F)F (stereo not shown) | - | -30.06
CCC(=O)N1CCC(Cc2cnc(Nc3cnccn3)cn2)CC1 | 8.399 | 1.25
COc1ccc(-c2n[nH]cc2CN2CCSCC2)c(OC)c1 | 8.065 | -21.31
O=C(CCc1ccc(-c2ccccc2)[nH]1)N1CCCC(n2ccnc2)C1 (stereo not shown) | 19.67 | 39.61
CC(C)N(Cc1ccccn1)C(=O)CCOc1cccc(F)c1 | 11.45 | -20.63
Cc1cnc(N2CCC3(C2)C(=O)N(C)CCN3Cc2cccnc2)nc1.O=C(O)C(F)(F)F.O=C(O)C(F)(F)F (stereo not shown) | - | -52.87
CN(Cc1ccccc1)c1ncccc1CNC(=O)c1ccnn1C | 11.15 | -6.908
CCc1oc(C(=O)OC)cc1Cn1cccc(C(F)(F)F)c1=O | 18.82 | -28.08
Cn1nc(CN2CCOCC2)c2c1CN(Cc1ccsc1)C2 | 16.43 | -
CCNC(c1ccc(F)cc1)c1cccnc1 (stereo not shown) | 3.846 | -4.156
O=C1NCCCCC1NC(=O)C1(c2cccc(Cl)c2)CC1 (stereo not shown) | 19.15 | 12.28
Cc1ccccc1CC(=O)N1CCCn2cncc2C1 | 14.32 | 16.66
Cc1nn(C)c(N(C)C)c1CNCc1ccnc(N2CCCCC2)c1 | 16.33 | 5.568
O=C(O)C(F)(F)F.O=C(O)C(F)(F)F.c1cncc(COCc2n[nH]c3c2CN(Cc2ccco2)C3)c1 | - | -3.449
Cc1cccc(NC(=O)N2CCN(Cc3nnc(C(C)C)o3)CC2)c1 | 15.79 | -39.35
O=C(O)C(F)(F)F.O=C(O)C(F)(F)F.[H][C@@]12CN(C(=O)c3ccnnc3)C[C@]1([H])OCCN2CCN1CCCC1 | - | -5.03
Br.Cc1ncc(C(=O)N2CCOC(C(=O)N3CCCCCC3)C2)c(C)n1 (stereo not shown) | - | 7.534
Cc1nc(CN2CCN(C(=O)c3sccc3C3CC3)CC2)cs1 | 6.25 | 1.425
Cc1cnc(C)c(N2CCC(C(=O)O)(n3ccc(C(C)(C)C)n3)CC2)n1 | 4.816 | -13.7
O=C(NCCCc1ccc(F)cc1)c1ccc(N2CCOCC2)cc1 | 6.211 | -2.834
CCC(=O)Nc1cccc(C(=O)NCCC2=CSC3=NCCCN23)c1 | 15.93 | -22.62
CC(C)c1cc2c(s1)NC(c1ccccc1)NC2=O (stereo not shown) | 15.92 | 16.99
Cc1nccnc1C1CCN(C(=O)C(C)C)CC1 | 15.84 | -5.938
CCOCC(O)CN1CCN(C(=O)c2cccc(CC#N)c2)CC1 (stereo not shown) | 12.05 | -1.012
NC(=O)c1c(-c2ccc(Cl)cc2Cl)csc1NC(=O)CCC(=O)O | 2.266 | -12.78
Cc1ncc2c(n1)CN(CC(=O)Nc1nncs1)CC2 | 8.661 | -10.17
CC(C)c1cc(CN(C)C(=O)CN2CCCCC2=O)no1 | 1.075 | -1.505
CC(C)c1nc(CN2CCN(C(=O)Cc3ccccc3Cl)CC2)no1 | 11.6 | 9.899
COCCN1CCC(c2nc3ccccc3[nH]2)CC1 | 6.41 | -28.68
CC(NCCCN1CCCN(C)CC1)C(C)(C)C (stereo not shown) | 6.997 | -14.19
COCc1c(C(=O)O)nnn1Cc1cccc(C(F)(F)F)c1 | 13.69 | 17.61
CN(C)c1nc2c(c(N(C)Cc3n[nH]c4c3CCCC4)n1)CCNCC2 | 27.62 | 31.61
c1cncc(COC[C@H]2CC[C@H]3[C@H](CCN3Cc3cccs3)O2)c1 | 10.1 | -
CCc1nnc(CN(CC)C(=O)C2CC(=O)N(C3CCCC3)C2)o1 (stereo not shown) | 4.604 | 12.09
CCOc1ccc([C@@H]2N[C@H](c3nccs3)Cc3ccsc32)cc1OC | 14.69 | -14.19
Fc1cccc2[nH]c(CN3CCn4c(nnc4C4CC4)C3)nc12 | 9.524 | -6.878
CCNC(=O)c1cc2n(n1)CCCO2 | 18.04 | 8.344
CC(C)c1noc(CC[C@@H]2CCCN3CCCC[C@H]23)n1 | 9.067 | -
Cc1ccc2nc(-c3nc4c([nH]3)CC(C)(C)CNC4=O)cn2c1 | 5 | -25.28
COc1c(CNCCNC(=O)c2ccccc2)c(C)nn1C.Cl | - | -6.002
[H][C@]12C[C@H](CNC(=O)c3ccsc3)O[C@@]1([H])CN(C(=O)c1ccco1)C2 | - | 35.43
NC(=O)c1c(-c2ccc(Cl)cc2)csc1NC(=O)CCC(=O)O | 11.9 | 9.664
Cc1ccc(CN2CCC3(CCC(C(=O)N(C)C)O3)CC2)o1.O=C(O)C(F)(F)F (stereo not shown) | - | -7.412
Cc1cc(C)n(CC2CCCN2C(=O)c2nccc3ccccc23)n1 (stereo not shown) | 17.13 | 3.715
NCCC(Cc1ccccc1)c1ccco1 (stereo not shown) | 2.156 | -11.54
C[C@H]1C[C@@H]2CCN(Cc3ccccn3)C[C@H]2O1 | 1.01 | -

The last 5 entries again:

compound	A	B
NC(=O)c1c(-c2ccc(Cl)cc2)csc1NC(=O)CCC(=O)O	11.9	9.664
Cc1ccc(CN2CCC3(CCC(C(=O)N(C)C)O3)CC2)o1.O=C(O)C(F)(F)F (stereo not shown)	-	-7.412
Cc1cc(C)n(CC2CCCN2C(=O)c2nccc3ccccc23)n1 (stereo not shown)	17.13	3.715
NCCC(Cc1ccccc1)c1ccco1 (stereo not shown)	2.156	-11.54
C[C@H]1C[C@@H]2CCN(Cc3ccccn3)C[C@H]2O1	1.01	-

Measurements from “University of Dundee, Small-Polar-MMV Screening Library” (2021), ChEMBL document CHEMBL3988442.